Test results as given in publication PMC1687153.
No constants are given. Whether binding was seen depends on the method and setting. For some of these results: Binding calls can cover weak binding; strength is not graded here. For some of these results: Sequences can lack the tags named with a protein. For some of these results: Binding seen in cells or lysates may run through a third protein.

Amino acid sequences for entries named in this document (tags omitted). A change or cut given only in a name is not applied to a line headed by its entry.
UniProt Q7PL83: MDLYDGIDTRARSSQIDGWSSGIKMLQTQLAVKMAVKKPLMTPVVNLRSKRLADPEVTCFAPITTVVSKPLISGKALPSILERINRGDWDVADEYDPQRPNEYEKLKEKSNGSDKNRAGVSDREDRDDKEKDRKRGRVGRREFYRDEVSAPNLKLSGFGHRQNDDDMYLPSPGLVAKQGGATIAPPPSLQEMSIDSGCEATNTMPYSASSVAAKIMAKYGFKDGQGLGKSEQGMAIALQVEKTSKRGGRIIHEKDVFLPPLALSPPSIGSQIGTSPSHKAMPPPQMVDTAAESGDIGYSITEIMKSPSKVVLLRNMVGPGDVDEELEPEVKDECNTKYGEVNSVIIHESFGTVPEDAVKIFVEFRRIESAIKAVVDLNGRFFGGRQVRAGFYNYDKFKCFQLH

Experiments:
[1] = biological target: T1, GST::U2A′ fusion protein (D. melanogaster) (UniProt Q9V4Q8); assay: pull-down; GST or GST-tagged protein on glutathione beads incubated overnight at 4 °C with 2.5 mg extract of 3- to 18-h-old embryos; Western blots with antibodies against SPF45 or SNF; only the target purified
T1 sequence: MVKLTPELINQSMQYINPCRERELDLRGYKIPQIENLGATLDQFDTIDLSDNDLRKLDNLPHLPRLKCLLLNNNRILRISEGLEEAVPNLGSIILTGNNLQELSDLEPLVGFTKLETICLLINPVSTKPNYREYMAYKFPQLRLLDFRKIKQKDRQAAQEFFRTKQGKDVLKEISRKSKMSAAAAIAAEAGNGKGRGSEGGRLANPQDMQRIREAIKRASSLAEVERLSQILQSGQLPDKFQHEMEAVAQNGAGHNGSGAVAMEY

[2] = biological target: T2, U2A′, yeast two-hybrid fusion (D. melanogaster) (UniProt Q9V4Q8); assay: two-hybrid; GAL4 activation domain (pACT2) and GAL4 DNA-binding domain (pAS2-1) fusions cotransformed into the diploid strain pJ69A/SL3004; growth on selective media with 1 mM 3-amino-1,2,4-triazole (HIS3 reporter) after 3 days
T2 sequence: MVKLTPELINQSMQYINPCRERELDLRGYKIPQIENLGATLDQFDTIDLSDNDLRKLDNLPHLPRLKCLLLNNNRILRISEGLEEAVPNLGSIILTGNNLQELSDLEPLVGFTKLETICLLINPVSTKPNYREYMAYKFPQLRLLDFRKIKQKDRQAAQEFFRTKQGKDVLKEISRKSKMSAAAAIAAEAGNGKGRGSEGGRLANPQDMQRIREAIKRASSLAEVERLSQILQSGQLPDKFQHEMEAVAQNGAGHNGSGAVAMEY

[3] = biological target: GST::RAD201 fusion protein (D. melanogaster); assay: pull-down; GST or GST-tagged protein on glutathione beads incubated overnight at 4 °C with 2.5 mg extract of 3- to 18-h-old embryos; Western blots with antibodies against SPF45 or SNF; only the target purified
[4] = biological target: D. melanogaster SPF45 protein (endogenous, wild type) (D. melanogaster (endogenous in embryos)) (UniProt Q7PL83); assay: co-IP; immunoprecipitations with antibodies against U2A′, SPF45 and SNF from embryo nuclear extracts, Western blots

D. melanogaster SPF45 protein (endogenous, wild type) (from UniProt Q7PL83)
binding [1]: binds

SPF45 RRM-like motif alone (amino acids 304-403), yeast two-hybrid fusion (D. melanogaster) (domain or fragment)
binding [2]: binds

B1: SNF (endogenous) (protein, UniProt P43332 1-216)
chain: MEMLPNQTIYINNLNEKIKKEELKKSLYAIFSQFGQILDIVALKTLKMRGQAFVIFKEIGSASNALRTMQGFPFYDKPMQIAYSKSDSDIVAKIKGTFKERPKKVKPPKPAPGTDEKKDKKKKPSSAENSNPNAQTEQPPNQILFLTNLPEETNEMMLSMLFNQFPGFKEVRLVPNRHDIAFVEFTTELQSNAAKEALQGFKITPTHAMKITFAKK
binding [3]: no binding | binding [4]: binds
